Measured values as given in the supplement of paper PMC3334620.
Over roughly 33,000 sequences, “E-score (-0.5 to 0.5)” has its median near -0.0034; the highest 2% begin near 0.25. Some of the results follow.

What follows are sequences tested against T1, Yap3 (UniProt P38749) (assay: PBM E-score (8-mer binding enrichment) (E-score (-0.5 to 0.5)); higher = stronger / more preferred TF binding). Details: protein concentration: 100 nM; construct: GST-full length.
T1 sequence: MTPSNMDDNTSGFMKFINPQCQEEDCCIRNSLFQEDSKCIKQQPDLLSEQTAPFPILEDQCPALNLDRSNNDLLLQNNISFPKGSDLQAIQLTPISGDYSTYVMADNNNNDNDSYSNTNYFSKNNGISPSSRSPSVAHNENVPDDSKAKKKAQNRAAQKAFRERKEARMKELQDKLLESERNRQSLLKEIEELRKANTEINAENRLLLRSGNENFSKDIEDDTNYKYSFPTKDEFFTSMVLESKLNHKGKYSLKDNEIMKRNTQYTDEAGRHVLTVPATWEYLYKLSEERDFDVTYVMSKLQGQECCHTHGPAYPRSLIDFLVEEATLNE
Method: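 Universal 'all 10-mer' protein binding microarrays (Agilent AMADID 015681) probed with GST-tagged S. cerevisiae TFs (full-length or DBD) made by in vitro transcription/translation (PURExpress), about 100-200 nM. Bound TF was detected with fluorescent anti-GST. Each ungapped 8-mer (which stands for itself and its reverse complement) is scored by the PBM enrichment score (E-score), a modified Wilcoxon-Mann-Whitney statistic from -0.5 to +0.5, computed with the Universal PBM Analysis Suite. Scale: above 0.35 generally sequence-specific binding.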

Sequence	PBM E-score
ACCGTCCG	-0.237
AAGAATCC	-0.111
CCATGCGA	-0.0102
ATCACTAA	0.0281
CCCGCCCC	0.022
ATGCGGTC	-0.0772
AATGAGTG	0.0774
CTGATCGC	0.0503
ACATCTCG	0.136
AGGCATTC	-0.0597
AAGGATGC	-0.0349
CCTGCTAG	-0.128
GCTGACTA	0.0115
GACGCAAA	0.0726
TAATATAA	0.344
GAAGCGCC	-0.0767
TAGCTTAA	0.0898
ACTATGCA	0.0787
GGTTGTGA	0.13
GGCGTCTA	-0.227
TTAGACAA	0.128
AAGATGTG	0.0314
GGACTACC	-0.151
ACGCCCAC	0.00322
CGTTGCGA	-0.00355

Sequence	PBM E-score
ACGCACCG	-0.0321
ATTACTGA	0.154
CTACTGAG	-0.0327
TCCAAAGA	0.00752
CCTCAATA	0.0618
GCGCTGAA	-0.154
AAGAAAAA	0.059
ATGACCTG	-0.0439
GAGTACCA	0.223
AGTTCCAT	0.16
AGGTGTAC	-0.0191
AAACACCT	0.0568
TATCGTGA	-0.0296
GGTAAACC	-0.119
GCCATAAA	0.0788
AATCCAAT	0.0791
AATGCGAA	-0.012
GTACGTAA	0.312
AACAGAGT	0.131
ACCTTACT	0.21
TAAGGCGA	0.0481
GATGGATA	0.0671
ATAACTCG	0.114
GTTATAAC	0.162
CCCAAGAA	-0.109

Sequence	PBM E-score
CGAGCTTC	0.0418
AATCCCTC	-0.0305
AGCGCGCA	0.24
AGTTCAAG	0.121
ACCATCTA	-0.0999
GCCTATGA	-0.134
AGAACCTA	0.0493
ATGTCTCG	-0.0888
CCATACTC	-0.133
AAGTTGAA	0.0412
CATTTGCA	0.136
CAGCAAGC	-0.237
ACTCACTC	-0.00993
CACCACTC	-0.0806
ACCACCGG	-0.18
GTCACGCA	-0.0179
ACCCCTGG	-0.299
CCATACAG	-0.0851
ACTATAGA	0.0739
AGCGGCAA	-0.0859
GAGCCCCA	-0.286
AATTGAAC	0.0173
TGGAACCA	0.12
GGTCACGA	0.0748
CGGCAGAA	0.124

Sequence	PBM E-score
ATATGTCA	0.17
GCAGTGCC	-0.298
ATAACCGA	-0.00325
CAAGGTGA	0.0315
GCCTATAC	-0.0816
AGATTCCT	-0.0936
CCATTTGC	0.0381
ACGAACCA	0.266
CAAGTAAG	0.0683
CAGCGAGG	-0.125
AAACGATT	0.198
GCATCTGA	-0.225
ACGACACA	0.17
CTACCAGA	-0.0115
ATAGCTCG	-0.243
GAGTGAGA	-0.0542
AGTTGGGA	-0.145
ATAGCCAT	0.0223
AACCTGTC	-0.0277
CTGATGAA	-0.112
TGTAATAA	0.242
ATTCGACC	-0.185
CGCGTTCC	-0.00554
GTTTGCGA	0.113
CGCCGAAC	0.118

Sequence	PBM E-score
TCACAAGA	0.0103
ATGCGTAC	0.0677
CGCAGCCA	-0.129
CTCCTAAC	-0.0276
ACCGAGAA	0.166
ACTCTGCC	-0.104
CTGTTTAC	0.0799
ATGACGGA	-0.0133
GAAGCATA	-0.0472
GCTATTTA	0.0985
GAGTGGGA	-0.199
CCCATTAA	-0.108
CCACGCGG	-0.19
AATCATCA	0.168
CATGGAAA	0.236
ACAGCAGG	-0.126
AAAAGACA	0.227
ACGCACTG	-0.0882
GACCGTCC	-0.231
AACACGTA	0.142
AACGTAGG	-0.06
GCCAGGAA	0.0131
AGTGACAT	0.1
GAGCGCTA	0.0655
GAGTAGAC	0.0672

Sequence	PBM E-score
CCAAACAG	0.0533
CAAAGCTC	-0.278
CCAGTTAA	0.143
AATTCATA	0.242
GTTATCCA	0.0968
CCATAGAC	0.00214
AAGCCCAT	-0.0713
AAGGCCAA	-0.17
AACATCAT	0.174
CCTATTGA	0.0457
AGACCTAT	0.104
CGCGAAAG	0.00871
CGGGTCAG	-0.128
GATGAGAC	0.118
CTTACTAA	0.443
GCTCACCC	-0.146
CTGCCTTC	-0.071
GCGCAAGA	0.152
TACGATCA	0.0973
AGTGAATG	0.13
ATGTCTTG	0.0386
AAGCGAAG	-0.107
ACAATCAT	0.0973
CGTGTATA	0.134
ATAGCGCA	0.0674

Sequence	PBM E-score
GAGCTAGA	-0.166
AACAAAAG	0.164
GGCGGAAC	-0.132
AGGCGTCC	-0.0921
CCATGGCC	-0.193
CATCCAGC	-0.0989
CTCTGAGA	0.0651
CCCTGAAC	0.109
GACTCTTA	0.141
GCTTGTAC	0.117
ACCGAACA	0.0988
CCGGAGCA	-0.129
CAATTGGC	0.179
ATTCATAG	0.205
AATGTAGA	-0.0455
AGCTTGCG	-0.219
CTGTATAA	0.13
AGAGTTAG	-0.0808
TGTACAAA	0.196
AGCTCTGC	-0.215
CGTATGCC	-0.167
CTCAAAAG	0.00523

In a second layout: entries from further up.
CTCTGAGA
  PBM E-score: 0.0651
CCCTGAAC
  PBM E-score: 0.109
GACTCTTA
  PBM E-score: 0.141
GCTTGTAC
  PBM E-score: 0.117

A different layout for part of the listing above:
Sequence,PBM E-score
GAGCTAGA,-0.166
GCTTGTAC,0.117
AGCTTGCG,-0.219
AGCTCTGC,-0.215
